For part of these data: Expression grades refer to the transcript from which the peptide derives; gene names, where given, were looked up from the sequence.
How the values were obtained:
[1] = tested on: HLA-A*02; test: Identification and relative LC-MS quantitation of HLA-A*02-presented tumor-associated peptides on tissue samples (presentation profiles, Tables 13A, 13B, 15, FIG. 1); design: species or system human; key to Presentation score NHL / Presentation score CLL / Presentation score BRCA / Presentation score AML / Presentation score GB / Presentation score NSCLC / Presentation score GBC_CCC / Presentation score UEC / Presentation score MEL / Presentation score OSCAR / Presentation score GC / Presentation score UBC / Presentation score OC / Presentation score RCC / Presentation score CRC / Presentation score PCA / Presentation score HCC / Presentation score PC / Presentation score SCLC: specifically presented on tumors (++++); very highly over-presented on tumors compared to a panel of normal tissues (+++); highly over-presented on tumors compared to a panel of normal tissues (++); over-presented on tumors compared to a panel of normal tissues (+); conditions: for Peptide Presentation on cancer entities: HLA-A*02-binding tumor-associated peptides
[2] = tested on: source genes (mRNA); test: Gene and exon expression of source genes, TCGA tumor samples compared with normal tissue samples (Lonsdale, 2013) (Table 17); design: species or system human; conditions: for Target coverage: over-expression category of source gene, LAML: Acute Myeloid Leukemia (N = 173); for Target coverage: over-expression category of source gene, BLCA: Bladder urothelial carcinoma (N = 408); for Target coverage: over-expression category of source gene, BRCA: Breast cancer (N = 1104), cutoff more than 2-fold above highest 75% percentile of high and medium risk normal tissue samples; for Target coverage: over-expression category of source gene, CHOL: Cholangiocarcinoma (N = 36); for Target coverage: over-expression category of source gene, READ: Colon and rectal adenocarcinoma (N = 167); for Target coverage: over-expression category of source gene, COAD: Colon and rectal adenocarcinoma (N = 462); for Target coverage: over-expression category of source gene, ESCA: Esophageal cancer (N = 185); for Target coverage: over-expression category of source gene, GBM: Glioblastoma multiforme (N = 169); for Target coverage: over-expression category of source gene, LIHC: Liver hepatocellular carcinoma (N = 374); for Target coverage: over-expression category of source gene, LUSC: Lung squamous cell carcinoma (N = 503); for Target coverage: over-expression category of source gene, DLBC: Lymphoid neoplasm diffuse large B-cell lymphoma (N = 48); for Target coverage: over-expression category of source gene, OV: Ovarian serous cystadenocarcinoma (N = 309); for Target coverage: over-expression category of source gene, PRAD: Prostate adenocarcinoma (N = 498); for Target coverage: over-expression category of source gene, SKCM: Skin cutaneous melanoma (N = 473); for Target coverage: over-expression category of source gene, STAD: Stomach adenocarcinoma (N = 415); for Target coverage: over-expression category of source gene, UCEC: Uterine corpus endometrial carcinoma (N = 546); for Target coverage: over-expression category of source gene, PAAD: Pancreatic ductal adenocarcinoma (N = 179)
[3] = tested on: source genes (mRNA); test: Expression profiling of source genes by in-house RNASeq of tumor and normal tissues (Table 18, FIG. 2); design: species or system human; key: very highly over-expressed in tumors compared to a panel of normal tissues (+++); highly over-expressed in tumors compared to a panel of normal tissues (++); over-expressed in tumors compared to a panel of normal tissues (+); conditions: source gene of peptide; for Expression score OSCAR: esophageal cancer incl. gastric-esophageal junction (N = 11) vs panel of normal tissues; for Expression score CRC: colorectal cancer (N = 20) vs panel of normal tissues; for Expression score GC: gastric cancer (N = 11) vs panel of normal tissues; for Expression score NSCLC: non-small cell lung cancer (N = 11) vs panel of normal tissues; for Expression score OC: ovarian cancer (N = 12) vs panel of normal tissues; for Expression score UBC: urinary bladder cancer (N = 10) vs panel of normal tissues
[4] = Table 13A, cancer entities on which the peptide was found presented
[5] = cutoff more than 2-fold above highest 75% percentile of normal tissue samples

| Substance | Peptide Presentation on cancer entities [1, 4] | Target coverage: over-expression category of source gene, LAML [2, 5] | Target coverage: over-expression category of source gene, BLCA [2, 5] | Target coverage: over-expression category of source gene, BRCA [2] | Target coverage: over-expression category of source gene, CHOL [2, 5] | Target coverage: over-expression category of source gene, READ [2, 5] | Target coverage: over-expression category of source gene, COAD [2, 5] | Target coverage: over-expression category of source gene, ESCA [2, 5] | Target coverage: over-expression category of source gene, GBM [2, 5] | Target coverage: over-expression category of source gene, LIHC [2, 5] | Target coverage: over-expression category of source gene, LUSC [2, 5] | Target coverage: over-expression category of source gene, DLBC [2, 5] | Target coverage: over-expression category of source gene, OV [2, 5] | Target coverage: over-expression category of source gene, PRAD [2, 5] | Target coverage: over-expression category of source gene, SKCM [2, 5] | Target coverage: over-expression category of source gene, STAD [2, 5] | Target coverage: over-expression category of source gene, UCEC [2, 5] | Expression score OSCAR [3] | Target coverage: over-expression category of source gene, PAAD [2, 5] | Expression score CRC [3] | other results |
| --- | --- | --- | --- | --- | --- | --- | --- | --- | --- | --- | --- | --- | --- | --- | --- | --- | --- | --- | --- | --- | --- |
| 121: peptide found in GRWD1 (gene looked up) (FTIFRTISV; listed as Homo sapiens) [compound 121] | CLL | C (>=5% of tumors above the cutoff, but <20%) | B (>= 20% of tumors above the cutoff, but <50%) | C (>=5% of tumors above the cutoff, but <20%) | C (>=5% of tumors above the cutoff, but <20%) | B (>= 20% of tumors above the cutoff, but <50%) | B (>= 20% of tumors above the cutoff, but <50%) | B (>= 20% of tumors above the cutoff, but <50%) | C (>=5% of tumors above the cutoff, but <20%) | C (>=5% of tumors above the cutoff, but <20%) | C (>=5% of tumors above the cutoff, but <20%) | A (>=50% of tumors above the cutoff) | B (>= 20% of tumors above the cutoff, but <50%) | C (>=5% of tumors above the cutoff, but <20%) | B (>= 20% of tumors above the cutoff, but <50%) | B (>= 20% of tumors above the cutoff, but <50%) | B (>= 20% of tumors above the cutoff, but <50%) | + |  |  | Presentation score CLL ([1]; HLA-A*02 peptides, chronic lymphocytic leukemia (N = 17) vs panel of normal tissues (N = 262)): ++++ |
| 123: peptide found in MST1R (gene looked up) (VLDPALPALV; listed as Homo sapiens) [compound 123] | OC, UBC |  |  |  |  | C (>=5% of tumors above the cutoff, but <20%) | C (>=5% of tumors above the cutoff, but <20%) | C (>=5% of tumors above the cutoff, but <20%) |  |  |  |  |  |  |  | C (>=5% of tumors above the cutoff, but <20%) |  | + | C (>=5% of tumors above the cutoff, but <20%) | ++ | Presentation score OC ([1]; HLA-A*02 peptides, ovarian cancer (N = 20) vs panel of normal tissues (N = 262)): ++++; Presentation score UBC ([1]; HLA-A*02 peptides, urinary bladder cancer (N = 16) vs panel of normal tissues (N = 262)): ++++; Peptide Presentation on cancer entities ([1]; Table 13B, presentation on additional cancer entities): NSCLC, UEC, HNSCC; Expression score GBC_CCC ([3]; gallbladder adenocarcinoma and cholangiocarcinoma (N = 3) vs panel of normal tissues): +; Expression score GC [3]: +++; Expression score NSCLC [3]: +; Expression score OC [3]: +; Expression score PC ([3]; pancreatic cancer (N = 26) vs panel of normal tissues): +++; Expression score UBC [3]: +++ |
| 127: peptide found in LRRC59 (gene looked up) (KLDGNELDL; listed as Homo sapiens) [compound 127] | NSCLC | B (>= 20% of tumors above the cutoff, but <50%) | A (>=50% of tumors above the cutoff) | A (>=50% of tumors above the cutoff) | A (>=50% of tumors above the cutoff) | A (>=50% of tumors above the cutoff) | A (>=50% of tumors above the cutoff) | A (>=50% of tumors above the cutoff) | A (>=50% of tumors above the cutoff) | A (>=50% of tumors above the cutoff) | A (>=50% of tumors above the cutoff) | A (>=50% of tumors above the cutoff) | A (>=50% of tumors above the cutoff) | A (>=50% of tumors above the cutoff) | A (>=50% of tumors above the cutoff) | A (>=50% of tumors above the cutoff) | A (>=50% of tumors above the cutoff) | + | A (>=50% of tumors above the cutoff) | + | Presentation score NSCLC ([1]; HLA-A*02 peptides, non-small cell lung cancer (N = 90) vs panel of normal tissues (N = 262)): ++++; Target coverage: over-expression category of source gene, KIRC ([2]; Clear cell kidney carcinoma (N = 534), cutoff more than 2-fold above highest 75% percentile of normal tissue samples): A (>=50% of tumors above the cutoff); Target coverage: over-expression category of source gene, KICH ([2]; Kidney chromophobe (N = 66), cutoff more than 2-fold above highest 75% percentile of normal tissue samples): B (>= 20% of tumors above the cutoff, but <50%); Target coverage: over-expression category of source gene, LGG ([2]; Lower grade glioma (N = 534), cutoff more than 2-fold above highest 75% percentile of normal tissue samples): A (>=50% of tumors above the cutoff); Target coverage: over-expression category of source gene, LUAD ([2]; Lung adenocarcinoma (N = 517), cutoff more than 2-fold above highest 75% percentile of normal tissue samples): A (>=50% of tumors above the cutoff); Target coverage: over-expression category of source gene, KIRP ([2]; Papillary kidney carcinoma (N = 291), cutoff more than 2-fold above highest 75% percentile of normal tissue samples): A (>=50% of tumors above the cutoff); Expression score BRCA ([3]; BRCA tumors vs panel of normal tissues): +; Expression score GC [3]: +; Expression score GB ([3]; glioblastoma (N = 24) vs panel of normal tissues): +; Expression score NSCLC [3]: +; Expression score OC [3]: +; Expression score UBC [3]: +; Expression score UEC ([3]; uterine cancer (N = 10) vs panel of normal tissues): + |

From US20170189504A1, “NOVEL PEPTIDES AND COMBINATION OF PEPTIDES FOR USE IN IMMUNOTHERAPY AGAINST VARIOUS CANCERS” (immatics biotechnologies GmbH, priority 2015, published 2017)
